# Data from patent US20030228621A1, “Common ligand universal enzyme assay and compositions for use therein” (priority 2002, published 2003).
# Protein sequences, listed by entry. Tags and fused reporters are not part of them. Lines headed by an entry give the natural chain unless they say otherwise; changes in a name come on top.
# UniProt P45568: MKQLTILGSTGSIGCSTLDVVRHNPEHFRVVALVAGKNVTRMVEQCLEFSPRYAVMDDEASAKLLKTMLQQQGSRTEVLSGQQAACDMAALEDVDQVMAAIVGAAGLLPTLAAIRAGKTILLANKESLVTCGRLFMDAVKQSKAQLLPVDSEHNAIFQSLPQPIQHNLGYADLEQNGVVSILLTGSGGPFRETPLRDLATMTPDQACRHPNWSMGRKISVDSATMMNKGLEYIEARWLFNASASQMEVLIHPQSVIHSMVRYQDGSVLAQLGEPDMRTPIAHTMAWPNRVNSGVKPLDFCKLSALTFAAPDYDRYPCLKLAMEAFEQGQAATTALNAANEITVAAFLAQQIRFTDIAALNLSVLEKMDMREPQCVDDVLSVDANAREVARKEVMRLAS
# pKd: −log10 of the molar value. Some results were stated once for a whole list of compounds, not compound by compound. For at least one compound, name, drawing or mass did not settle the structure.
# Target: Deoxy-D-xylulose 5-phosphate reductoisomerase (DOXPR) (Escherichia coli, UniProt P45568)
# Experiment: Enzyme activity in presence and absence of varying concentration of dye, DOXPR
# Type: biochemical
# Conditions: competitive inhibition, IC50 at least 17-fold Kd; read-out: estimated Kd value calculated from IC50
# Experimental: In search for specific ligands with potent binding to several dehydrogenases we screened our internal enzyme panel. In brief, activity of the enzymes was measured in the presence and absence of the varying concentration of the dyes.
# In this assay, the oxidoreductase common ligand (NADPH) was employed at a concentration sixteen times its Km value. Use of such a high concentration of oxidoreductase common ligand results in a calculated IC50 value at least 17-fold that of the dissociation constant (Kd).
structure (smiles),measurement,value
O=S(=O)(O)c1cc(Nc2nc(Cl)nc(Nc3ccc(Nc4nc(Cl)nc(Nc5cc(S(=O)(=O)O)cc6cc(S(=O)(=O)O)c(N=Nc7ccccc7S(=O)(=O)O)c(O)c56)n4)cc3)n2)c2c(O)c(N=Nc3ccccc3S(=O)(=O)O)c(S(=O)(=O)O)cc2c1 [Reactive Red 120],pKd,7.80 to 7.89
